Patent US20100190737A1, “COMPOSITIONS COMPRISING INOSINE AND OROTIC ACID AND METHODS OF USE THEREOF FOR THE TREATMENT OF CERTAIN HEART CONDITIONS AND ENHANCEMENT OF WORK CAPACITY” (NUTRITIONAL RESEARCH GROUP LLC, priority 2009, published 2010)

Legend:
[1] = tested on: rats with experimental aortic stenosis; experiment: Long term (12 month) experimental aortic stenosis; format: in vivo, rat
Procedure: A 12 month study using 60 white unbred male rats with initial body weights of 110-120 g, divided into four experimental groups, each group with 15 rats. Group I included intact animals (controls); Group II—rats with experimental aortic stenosis (untreated stenosed controls); Group III rats with experimental aortic stenosis given inosine in doses of 25 mg/kg/day; and Group IV rats with experimental aortic stenosis given both inosine and an orotic acid (in the instant study potassium orotate was used, however, as the orotic acid comprises 93-95% percent of any of the orotates, the results achieved are indicative of usage of any of the orotates including the potassium orotate used herein) combination in doses of 25 and 50 mg/kg/day, respectively, intragastrically, using a metal curved tube, beginning from the 45th day after the creation date of the abdominal aortic stenosis, and continuing for 10.5 months. The abdominal aortic stenosis was produced by the method of Beznak, referred to hereinabove, modified by Kogan, referred to above.
During the experimental period the animals in all four groups had regular measurements (recordings) of body weight and the 3-standard lead EKG-ms and 5-plane pericardial vector-cardiograms (VCG). At the beginning and end of the experimental period they also underwent tests for the endurance of a single, dosed physical exercise—forced swimming in a pool at 28-30° C., until maximally exhausted. Specifically, an animal had fixed to its tail a lead weight weighing approximately 7.5% percent of the animal's body weight became submerged due to the inability to continue swimming. At the end of the experimental period, the animals were sacrificed, and their hearts, thymuses, livers, adrenals and thyroids were weighed and their relative weights per 100 g body weight were calculated and recorded. Histological figures of sectioned cardiac muscle stained with hematoxilin-eosin were prepared by Van Hison's technique and examined for any attendant alterations in the normal histology of the heart. During the experiment, (untreated aortic stenosis) 8 of the 15 rats in Group II died, while in Group III (treated stenosis w/inosine) and Group IV (treated stenosis w/inosine and potassium orotate)—only 3 rats in each group died. […] The observed time period wherein the rats could swim were as follows: Groups I animals 45±2.0 minutes; Group II 6.5±2.1 minutes; Group III 16±1.2 minutes; and Group IV 32±4 minutes, respectively. Thus, the group receiving the combination of inosine and potassium orotate performed far better than Group II (untreated stenosis) and had doubled the work capacity of Group III (treated with inosine only). The relative weight of the heart in animals in Groups II, III and IV was higher than in Group I (control group) by 67%, 36% and 56%, respectively. (See Tables 2 A-B). The hearts of Group II animals were in the state of eccentric hypertrophy which explains the higher weight (see FIG. 5). The left ventricular wall in the animals of Group II was 8% thinner than in rats of Group I as a result of the eccentric condition. In rats of Groups III and IV the left ventricular wall was 30% and 46% thicker, respectively, than the rats in group I and they were all in the state of concentric heart hypertrophy.

white rats = experiment: Long-term (6 months) work capacity in trained and non-trained rats; conditions: INO 25 mg/kg, PO 50 mg/kg
Procedure: Seventy two white rats were randomly placed in 6 groups (12 animals each), to test the effectiveness of training and to determine morphological and physiological alterations in the rats. In Group I, control rats were nontrained and not administered either of inosine or the combination of inosine and orotate; Group II comprised non-trained rats to which were administered inosine (25 mg/kg/body weight; Group III comprised non-trained rats to which were administered the combination of inosine plus potassium orotate (25 mg/kg/body weight of inosine and 50 mg/kg/body weight potassium orotate); Group IV comprised trained rats that were not administered either of inosine or the combination of inosine and orotate; Group V comprised trained rats to which was administered inosine alone (25 mg/kg/body weight), and Group VI comprised trained rats to which was administered the combination of inosine plus potassium orotate (25 mg/kg/body weight of inosine and 50 mg/kg/body weight potassium orotate).
Training of rats consisted of their forced swimming in a water bath (28-30° C.) with a weight fixed on their backs (7.5% of the rat body weight). During the first two weeks the animals swam daily for 5-10 minutes, after which we determined the individual maximum time of swimming to exhaustion (i.e. maximum work capacity) for each animal and then calculated the mean maximum time for each group. After 2 weeks these initial maximum work capacity values were used for planning and performing additional swimming training.
The functional condition of the rats at rest was estimated from their work capacity (maximum swimming time), body weight increase, EKG tests, oxygen consumption and sodium and potassium levels in the myocardium in a relatively quiet state. […] Also determined were the amounts of glycogen in the m. quadriceps (quadriceps group of muscles) of the hip, the myocardium and the liver. All the quantitative results obtained were processed with conventional statistical procedures.

OC[C@H]1O[C@@H](n2cnc3c(O)ncnc32)[C@H](O)[C@@H]1O [inosine]
Body weight (g) 1½ months ([1]; 1½ months after surgery (treatment began on the 45th day)): 198 ± 6.0 g | Relative weight of Adrenals ([1]; 12 months after surgery): 11 ± 0.7 mg/100 g | Relative weight of Liver ([1]; 12 months after surgery): 3475 ± 148 mg/100 g | Relative weight of Thymus ([1]; 12 months after surgery): 116 ± 7.5 mg/100 g | Body weight (g) 12 months ([1]; 12 months after surgery, 10.5 months of treatment): 443 ± 12 g | Body Weight After 6 mo. (white rats; trained rats): 290 ± 7.4 | Body Weight After 6 mo. (white rats; untrained rats): 280 ± 3.8

O=C([O-])c1cc(=O)[nH]c(=O)[nH]1.[K+] [potassium orotate]
Body Weight After 6 mo. (white rats; untrained rats): 286 ± 8.5
